Experimental data as given in doi:10.1101/2023.10.12.562097.

Sequences of proteins named here, by UniProt entry; tags and fusion partners are left off.
UniProt P35221: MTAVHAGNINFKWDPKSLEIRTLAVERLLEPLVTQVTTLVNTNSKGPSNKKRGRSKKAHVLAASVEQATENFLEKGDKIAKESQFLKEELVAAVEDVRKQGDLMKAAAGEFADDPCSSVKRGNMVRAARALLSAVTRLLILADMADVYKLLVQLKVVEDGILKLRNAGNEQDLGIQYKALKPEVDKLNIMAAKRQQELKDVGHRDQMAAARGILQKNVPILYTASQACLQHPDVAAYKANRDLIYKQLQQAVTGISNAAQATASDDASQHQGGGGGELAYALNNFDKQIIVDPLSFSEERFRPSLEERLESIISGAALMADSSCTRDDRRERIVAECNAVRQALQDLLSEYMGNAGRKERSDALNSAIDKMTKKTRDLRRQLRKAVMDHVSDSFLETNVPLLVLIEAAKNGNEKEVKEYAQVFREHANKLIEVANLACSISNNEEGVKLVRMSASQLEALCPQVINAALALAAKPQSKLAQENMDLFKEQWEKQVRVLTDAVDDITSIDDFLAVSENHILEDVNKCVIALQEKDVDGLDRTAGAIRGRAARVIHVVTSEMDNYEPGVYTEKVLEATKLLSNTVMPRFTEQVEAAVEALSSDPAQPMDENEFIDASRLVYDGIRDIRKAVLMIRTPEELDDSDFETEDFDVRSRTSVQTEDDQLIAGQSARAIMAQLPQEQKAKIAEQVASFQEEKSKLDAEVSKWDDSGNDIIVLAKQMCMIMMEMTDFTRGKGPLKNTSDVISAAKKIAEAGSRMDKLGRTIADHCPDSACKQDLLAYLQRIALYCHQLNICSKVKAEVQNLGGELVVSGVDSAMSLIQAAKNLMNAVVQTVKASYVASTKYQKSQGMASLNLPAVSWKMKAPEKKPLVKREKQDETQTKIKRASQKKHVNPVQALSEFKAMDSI
UniProt P04406: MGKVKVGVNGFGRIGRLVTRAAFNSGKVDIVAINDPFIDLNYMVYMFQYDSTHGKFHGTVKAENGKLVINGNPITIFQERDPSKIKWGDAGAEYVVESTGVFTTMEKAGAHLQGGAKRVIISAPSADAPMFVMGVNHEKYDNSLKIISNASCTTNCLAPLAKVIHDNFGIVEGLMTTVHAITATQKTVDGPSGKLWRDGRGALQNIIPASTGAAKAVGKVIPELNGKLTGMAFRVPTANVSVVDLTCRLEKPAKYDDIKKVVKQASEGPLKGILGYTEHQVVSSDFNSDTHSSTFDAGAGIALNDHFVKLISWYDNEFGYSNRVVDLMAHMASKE
UniProt Q9UGP4: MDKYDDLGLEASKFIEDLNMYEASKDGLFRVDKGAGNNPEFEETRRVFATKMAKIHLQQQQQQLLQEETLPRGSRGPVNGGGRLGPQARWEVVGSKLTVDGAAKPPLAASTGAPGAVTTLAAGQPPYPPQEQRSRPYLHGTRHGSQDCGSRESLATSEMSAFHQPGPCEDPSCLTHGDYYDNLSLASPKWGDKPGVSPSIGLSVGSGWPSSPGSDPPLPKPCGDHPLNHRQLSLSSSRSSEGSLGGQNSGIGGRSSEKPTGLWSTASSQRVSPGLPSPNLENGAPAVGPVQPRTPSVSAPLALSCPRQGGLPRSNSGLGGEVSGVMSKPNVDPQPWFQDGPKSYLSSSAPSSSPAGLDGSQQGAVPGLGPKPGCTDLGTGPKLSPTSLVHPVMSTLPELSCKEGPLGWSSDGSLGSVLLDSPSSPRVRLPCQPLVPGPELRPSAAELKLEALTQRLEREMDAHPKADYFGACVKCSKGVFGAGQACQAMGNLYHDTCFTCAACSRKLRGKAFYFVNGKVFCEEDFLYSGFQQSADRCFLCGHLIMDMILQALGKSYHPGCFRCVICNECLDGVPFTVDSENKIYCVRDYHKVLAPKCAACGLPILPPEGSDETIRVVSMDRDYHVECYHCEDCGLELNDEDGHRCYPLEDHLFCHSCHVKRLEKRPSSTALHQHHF

Assays:
Assay in all cases: proximity labelling
[1] = biological target: T1, TurboID fusion to TRIP6-Δ252-277 (UniProt Q15654)
T1 sequence: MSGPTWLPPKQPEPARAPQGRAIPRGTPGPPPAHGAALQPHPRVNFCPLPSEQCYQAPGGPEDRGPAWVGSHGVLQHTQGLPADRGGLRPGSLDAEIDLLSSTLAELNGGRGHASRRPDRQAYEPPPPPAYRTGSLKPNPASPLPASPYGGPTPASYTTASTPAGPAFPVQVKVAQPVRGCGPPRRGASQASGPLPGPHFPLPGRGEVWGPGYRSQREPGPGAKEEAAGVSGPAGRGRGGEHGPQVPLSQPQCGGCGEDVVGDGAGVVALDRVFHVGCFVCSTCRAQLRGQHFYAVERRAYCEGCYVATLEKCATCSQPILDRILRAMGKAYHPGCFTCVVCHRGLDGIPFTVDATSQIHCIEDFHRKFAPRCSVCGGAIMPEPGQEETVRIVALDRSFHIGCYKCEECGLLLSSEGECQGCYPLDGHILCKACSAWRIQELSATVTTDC

[2] = biological target: T2, TurboID fusion to wild-type TRIP6 (UniProt Q15654)
T2 sequence: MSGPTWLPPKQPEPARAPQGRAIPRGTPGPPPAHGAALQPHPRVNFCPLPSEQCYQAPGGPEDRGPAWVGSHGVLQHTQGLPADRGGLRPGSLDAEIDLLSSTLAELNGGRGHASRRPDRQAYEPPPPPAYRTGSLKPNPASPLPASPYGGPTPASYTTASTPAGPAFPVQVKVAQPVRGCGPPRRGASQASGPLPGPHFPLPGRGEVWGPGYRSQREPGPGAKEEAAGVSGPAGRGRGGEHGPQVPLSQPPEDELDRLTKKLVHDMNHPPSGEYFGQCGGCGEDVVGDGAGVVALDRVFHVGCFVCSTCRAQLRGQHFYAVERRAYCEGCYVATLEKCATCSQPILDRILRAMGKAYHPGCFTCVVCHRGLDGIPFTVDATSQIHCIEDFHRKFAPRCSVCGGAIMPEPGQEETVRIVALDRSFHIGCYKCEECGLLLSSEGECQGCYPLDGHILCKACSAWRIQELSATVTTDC

[3] = biological target: T3, TurboID fusion to TRIP6-mut1,2,3 (UniProt Q15654)
T3 sequence: T2 sequence with F319A, F377A, Y449A

binding [1] | binding [2] | binding [3] | Substance
binds weakly | binds weakly | – | α-E catenin (from UniProt P35221 1-906)
no binding | no binding | – | GAPDH (from UniProt P04406 1-335) (enzyme)
binds | binds | binds | LIMD1 (from UniProt Q9UGP4 1-676)

Changes are numbered by the printed parent chain. These are yes or no findings as the source states them, for the method shown. In cells and extracts the contact can be indirect. A yes stands for co-enrichment or nearness to the bait. Other partners may have been found. For some of these results: A no says only that the protein was not detected with the bait. Tags and fused reporters may be left off the sequences shown.
